Measurements as given in publication PMC9280186.
These are yes or no findings as the source states them, for the method shown. Some results given as binding are weak or reduced against the parent protein; the word gives no strength.

Chains of the proteins cited; added tags and fusions are not shown. Residues count along the entry.
UniProt O00206, residues 24-631: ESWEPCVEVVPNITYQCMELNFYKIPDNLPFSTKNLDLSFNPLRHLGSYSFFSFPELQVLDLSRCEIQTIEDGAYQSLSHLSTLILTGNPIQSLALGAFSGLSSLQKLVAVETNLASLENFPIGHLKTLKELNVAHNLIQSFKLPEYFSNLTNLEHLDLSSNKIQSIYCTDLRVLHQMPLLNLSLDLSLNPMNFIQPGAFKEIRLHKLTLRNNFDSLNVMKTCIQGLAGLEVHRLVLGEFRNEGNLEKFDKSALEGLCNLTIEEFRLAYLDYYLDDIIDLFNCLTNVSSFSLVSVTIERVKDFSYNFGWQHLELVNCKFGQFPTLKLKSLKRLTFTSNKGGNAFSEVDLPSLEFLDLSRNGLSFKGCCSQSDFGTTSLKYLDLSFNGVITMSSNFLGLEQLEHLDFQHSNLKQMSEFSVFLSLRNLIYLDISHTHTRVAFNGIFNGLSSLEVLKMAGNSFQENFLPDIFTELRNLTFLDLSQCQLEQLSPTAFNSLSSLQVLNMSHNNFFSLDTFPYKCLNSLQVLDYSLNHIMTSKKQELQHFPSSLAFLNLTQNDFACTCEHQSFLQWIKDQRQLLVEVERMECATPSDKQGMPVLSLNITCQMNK

Target: TLR 4 (Peprotech) (UniProt O00206)
Assay: pull-down; TLR4 conjugated to 80 nm carboxyl silica nanospheres, blocked with Tris-HCl pH 8 and casein; incubated with Alt a 1 (0.1 ug/uL) for 2 h at room temperature; washed pellets analysed by SDS-PAGE and western blot with anti-Alt a 1 antibody; both purified

B1: recombinant Alt a 1 (protein, UniProt P79085 26-157)
chain: DTASCPVTTEGDYVWKISEFYGRKPEGTYYNSLGFNIKATNGGTLDFTCSAQADKLEDHKWYSCGENSFMDFSFDSDRSGLLLKQKVSDDITYVATATLPNYCRAGGNGPKDFVCQGVADAYITLVTLPKSS
binding: binds
